No constants are given. Whether binding was seen depends on the method and setting. Binding seen in cells or lysates may run through a third protein. These calls come from enrichment with a bait or labelling near it, and not all partners need be listed.

Sequences of proteins named here, by UniProt entry; tags and fusion partners are left off. A change or cut given only in a name is not applied to a line headed by its entry. Residues count along the entry.
UniProt P05305: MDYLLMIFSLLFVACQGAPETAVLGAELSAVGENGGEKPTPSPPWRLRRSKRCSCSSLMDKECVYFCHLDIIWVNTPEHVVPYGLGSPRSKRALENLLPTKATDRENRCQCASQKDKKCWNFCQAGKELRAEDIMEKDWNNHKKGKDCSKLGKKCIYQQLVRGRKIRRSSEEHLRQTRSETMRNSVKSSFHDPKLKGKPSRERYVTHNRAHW
UniProt P25101, residues 21-427: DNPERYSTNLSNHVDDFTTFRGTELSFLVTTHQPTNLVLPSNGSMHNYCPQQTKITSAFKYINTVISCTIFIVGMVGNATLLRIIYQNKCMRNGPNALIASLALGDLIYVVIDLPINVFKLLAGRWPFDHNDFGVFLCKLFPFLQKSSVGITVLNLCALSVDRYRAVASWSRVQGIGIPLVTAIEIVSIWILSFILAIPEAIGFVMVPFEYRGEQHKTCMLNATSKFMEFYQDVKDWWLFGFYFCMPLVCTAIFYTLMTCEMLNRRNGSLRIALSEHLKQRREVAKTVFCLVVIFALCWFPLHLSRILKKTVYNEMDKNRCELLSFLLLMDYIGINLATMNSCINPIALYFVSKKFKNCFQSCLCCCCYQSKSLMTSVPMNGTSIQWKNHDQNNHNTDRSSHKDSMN

The target of assay [1] is EDN1 (human) (UniProt P05305). Kind of assay: affinity purification with mass spectrometry; IP of the index protein from HAEC or HCASMC lysate; the sentence does not tell in which of the two cell types the interactor was found; interactor: log2 FC >0 and FDR ≤0.1.
The target of assay [2] is EDN1 (human) (UniProt P05305). Nature of the assay: affinity purification with mass spectrometry; IP of the index protein (antibody to the endogenous bait vs isotype IgG, or anti-FLAG M2 beads for the 3xFLAG-tagged bait vs mock transfection) from HCASMC (SMC) lysate, overnight at 4 °C; iTRAQ or TMT LC-MS/MS; interactor: log2 FC >0 and FDR ≤0.1.
For assay [3], the target named is EDNRA (human (endogenous in HCASMC)) (UniProt P25101). The description is as above.

B1: SRSF3 (protein, UniProt P84103 1-164)
chain: MHRDSCPLDCKVYVGNLGNNGNKTELERAFGYYGPLRSVWVARNPPGFAFVEFEDPRDAADAVRELDGRTLCGCRVRVELSNGEKRSRNRGPPPSWGRRPRDDYRRRSPPPRRRSPRRRSFSRSRSRSLSRDRRRERSLSRERNHKPSRSFSRSRSRSRSNERK
As for B1, the binding entry with EDN1 (human) [1] is recorded as “binds”.

B2: PALLD (protein, UniProt Q8WX93 1-1383)
chain: MSGTSSHESFYDSLSDMQEESKNTDFFPGLSAFLSQEEINKSLDLARRAIADSETEDFDSEKEISQIFSTSPASLCEHPSHKETKLGEHASRRPQDNRSTPVQPLAEKQTKSISSPVSKRKPAMSPLLTRPSYIRSLRKAEKRGAKTPSTNVKPKTPHQRKGGPQSQLCDKAANLIEELTSIFKAAKPRNRSPNGESSSPDSGYLSPKNQPSALLSASASQSPMEDQGEMEREVKSPGARHCYQDNQDLAVPHNRKSHPQPHSALHFPAAPRFIQKLRSQEVAEGSRVYLECRVTGNPTPRVRWFCEGKELHNTPDIQIHCEGGDLHTLIIAEAFEDDTGRYTCLATNPSGSDTTSAEVFIEGASSTDSDSESLAFKSRAGAMPQAQKKTTSVSLTIGSSSPKTGVTTAVIQPLSVPVQQVHSPTSYLCRPDGTTTAYFPPVFTKELQNTAVAEGQVVVLECRVRGAPPLQVQWFRQGSEIQDSPDFRILQKKPRSTAEPEEICTLVIAETFPEDAGIFTCSARNDYGSATSTAQLVVTSANTENCSYESMGESNNDHFQHFPPPPPILETSSLELASKKPSEIQQVNNPELGLSRAALQMQFNAAERETNGVHPSRGVNGLINGKANSNKSLPTPAVLLSPTKEPPPLLAKPKLDPLKLQQLQNQIRLEQEAGARQPPPAPRSAPPSPPFPPPPAFPELAACTPPASPEPMSALASRSAPAMQSSGSFNYARPKQFIAAQNLGPASGHGTPASSPSSSSLPSPMSPTPRQFGRAPVPPFAQPFGAEPEAPWGSSSPSPPPPPPPVFSPTAAFPVPDVFPLPPPPPPLPSPGQASHCSSPATRFGHSQTPAAFLSALLPSQPPPAAVNALGLPKGVTPAGFPKKASRTARIASDEEIQGTKDAVIQDLERKLRFKEDLLNNGQPRLTYEERMARRLLGADSATVFNIQEPEEETANQEYKVSSCEQRLISEIEYRLERSPVDESGDEVQYGDVPVENGMAPFFEMKLKHYKIFEGMPVTFTCRVAGNPKPKIYWFKDGKQISPKSDHYTIQRDLDGTCSLHTTASTLDDDGNYTIMAANPQGRISCTGRLMVQAVNQRGRSPRSPSGHPHVRRPRSRSRDSGDENEPIQERFFRPHFLQAPGDLTVQEGKLCRMDCKVSGLPTPDLSWQLDGKPVRPDSAHKMLVRENGVHSLIIEPVTSRDAGIYTCIATNRAGQNSFSLELVVAAKEAHKPPVFIEKLQNTGVADGYPVRLECRVLGVPPPQIFWKKENESLTHSTDRVSMHQDNHGYICLLIQGATKEDAGWYTVSAKNEAGIVSCTARLDVYTQWHQQSQSTKPKKVRPSASRYAALSDQGLDIKAAFQPEANPSHLTLNTALVESEDL
As for B2, the binding entry (in the assay with EDN1 (human) [2]; in assay [3]) was “binds” in each case.

These data come from publication PMC10786878.
